# Source: US20140243268A1 (GEORGIA REGENTS RESEARCH INSTITUTE, published 2014)
# Chains of the proteins cited; added tags and fusions are not shown. Lines headed by an entry give the natural chain unless they say otherwise; changes in a name come on top. A line that says so, or that is headed by a name, gives the form on record, which may keep a tag or linker.
# HA-Erbin (pKH3-HA-Erbin) (Q96RT1, form named): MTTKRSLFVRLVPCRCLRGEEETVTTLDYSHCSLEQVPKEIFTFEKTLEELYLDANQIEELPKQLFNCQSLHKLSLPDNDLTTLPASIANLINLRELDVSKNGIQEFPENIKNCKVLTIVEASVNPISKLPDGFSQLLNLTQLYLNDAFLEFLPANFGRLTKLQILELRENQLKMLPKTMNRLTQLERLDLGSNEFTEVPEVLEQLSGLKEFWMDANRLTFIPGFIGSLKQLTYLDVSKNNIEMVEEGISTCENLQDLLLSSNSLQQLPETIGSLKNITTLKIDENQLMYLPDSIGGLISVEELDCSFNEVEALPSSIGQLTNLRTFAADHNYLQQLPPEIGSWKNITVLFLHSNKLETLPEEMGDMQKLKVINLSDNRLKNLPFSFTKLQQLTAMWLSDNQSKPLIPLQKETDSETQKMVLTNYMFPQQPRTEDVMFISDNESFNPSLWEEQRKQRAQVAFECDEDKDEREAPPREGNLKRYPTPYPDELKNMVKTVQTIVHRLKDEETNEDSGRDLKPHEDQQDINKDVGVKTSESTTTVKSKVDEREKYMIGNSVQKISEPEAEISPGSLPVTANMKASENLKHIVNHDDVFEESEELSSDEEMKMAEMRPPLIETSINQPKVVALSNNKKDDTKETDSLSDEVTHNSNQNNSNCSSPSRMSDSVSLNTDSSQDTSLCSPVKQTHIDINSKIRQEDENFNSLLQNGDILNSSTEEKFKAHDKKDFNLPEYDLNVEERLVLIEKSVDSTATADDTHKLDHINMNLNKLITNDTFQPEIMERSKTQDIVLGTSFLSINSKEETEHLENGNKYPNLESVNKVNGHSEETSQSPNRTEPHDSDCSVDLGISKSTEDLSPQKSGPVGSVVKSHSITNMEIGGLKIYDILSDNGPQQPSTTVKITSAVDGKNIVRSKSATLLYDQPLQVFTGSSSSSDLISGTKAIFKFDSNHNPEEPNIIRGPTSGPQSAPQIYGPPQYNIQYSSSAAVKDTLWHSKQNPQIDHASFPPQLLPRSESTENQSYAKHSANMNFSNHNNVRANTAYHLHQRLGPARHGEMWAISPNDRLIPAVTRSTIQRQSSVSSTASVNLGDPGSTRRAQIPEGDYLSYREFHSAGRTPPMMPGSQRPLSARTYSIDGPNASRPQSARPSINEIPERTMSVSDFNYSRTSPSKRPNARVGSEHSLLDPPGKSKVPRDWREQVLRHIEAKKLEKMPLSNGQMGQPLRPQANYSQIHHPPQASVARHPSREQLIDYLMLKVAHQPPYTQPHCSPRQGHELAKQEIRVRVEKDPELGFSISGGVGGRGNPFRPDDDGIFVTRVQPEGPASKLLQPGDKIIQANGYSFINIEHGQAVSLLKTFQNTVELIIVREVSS
# Results are given in words; binding and its absence hold for the method and conditions named. In cells and extracts the contact can be indirect. Some results given as binding are weak or reduced against the parent protein; the word gives no strength.
# Biological target: Myc-Erbin (pRK5-Myc-Erbin) (UniProt Q96RT1)
# Experiment: co-precipitation from co-transfected HEK293 cells (data not shown)
substance,measurement,value
HA-Erbin (pKH3-HA-Erbin) (from UniProt Q96RT1 1-1371),binding,binds
